Experimental data: US6465204B1, “Amidase” (Diversa Corporation, priority 1996, dated 2002)
Some of these results come from one statement about several compounds together. For at least one compound, name, drawing or mass did not settle the structure.

Test system: Thermococcus GU5L5 amidase
Assay: Substrate specificity of the amidase (fluorogenic substrates)
Assay type: biochemical
Details: substrate 100 μM, 1 hour at 70° C.; ratio between substrates
Protocol: Fifty μL of the ‘600 μM stock solution’ was added to each of the wells of a white condensed plate using the Biomek to yield a final concentration of substrate of ˜100 μM. The fluorescence values were recorded (excitation=400 nm, emission=505 nm) on a plate reading fluorometer immediately after addition of the substrate. The plate was incubated at 70° C. for 60 min. and the fluorescence values were recorded again. The initial and final fluorescence values were subtracted to determine if an active clone was present by an increase in fluorescence over the majority of the other wells.
The excitation and emission wavelengths for the 7-amido-4-methylcoumarins were 380 and 460 nm respectively, and 326 and 450 for the methylumbelliferone.

SMILES | relative activity of the amidase
CCCCCCC(=O)Oc1ccc2c(C)cc(=O)oc2c1 [7-methylumbelliferyl heptanoate] | < 0.1
Cc1cc(=O)oc2cc(NC(=O)[C@H](C)NC(=O)OCc3ccccc3)ccc12 [CBZ-L-ala-AMC, Nα-carbonylbenzyloxy-L-alanine-7-amido-4-methylcoumarin] | < 0.1
